These are yes or no findings as the source states them, for the method shown. Some entries that bind do so weakly or less than the wild type.
B1: FLAG-sFGFR3_Del4 (receptor)
chain: DYKDDDDKMGAPACALALCVAVAIVAGASSESLGTEQRVVGRAAEVPGPEPGQQEQLVFGSGDAVELSCPPPGGGPMGPTVWVKDGTGLVPSERVLVGPQRLQVLNASHEDSGAYSCRQRLTQRVLCHFSVRVTDAPSSGDDEDGEDEAEDTGVDTGAPYWTRPERMDKKLLAVPAANTVRFRCPAAGNPTPSISWLKNGREFRGEHRIGGIKLRHQQWSLVMESVVPSDRGNYTCVVENKFGSIRQTYTLDVLERSPHRPILQAGLPANQTAVLGSDVEFHCKVYSDAQPHIQWLKHVEVNGSKVGPDGTPYVTVLKVSLESNASMSSNT
notes: Obtained by site directed mutagenesis of sFGFR3-pFLAG-CMV3 and made in HEK 293 cells; also called Del4 variant

Protein sequences, listed by entry. Tags and fused reporters are not part of them. Lines headed by an entry give the natural chain unless they say otherwise; changes in a name come on top.
UniProt P09038: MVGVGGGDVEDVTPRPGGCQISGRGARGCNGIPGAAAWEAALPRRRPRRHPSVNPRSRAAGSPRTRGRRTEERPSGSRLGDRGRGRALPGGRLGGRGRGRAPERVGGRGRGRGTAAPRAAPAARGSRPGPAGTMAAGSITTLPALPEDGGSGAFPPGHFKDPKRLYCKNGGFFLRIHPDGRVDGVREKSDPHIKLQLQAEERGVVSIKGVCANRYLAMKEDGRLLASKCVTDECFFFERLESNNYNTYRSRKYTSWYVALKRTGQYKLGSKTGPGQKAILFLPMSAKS
UniProt P22607: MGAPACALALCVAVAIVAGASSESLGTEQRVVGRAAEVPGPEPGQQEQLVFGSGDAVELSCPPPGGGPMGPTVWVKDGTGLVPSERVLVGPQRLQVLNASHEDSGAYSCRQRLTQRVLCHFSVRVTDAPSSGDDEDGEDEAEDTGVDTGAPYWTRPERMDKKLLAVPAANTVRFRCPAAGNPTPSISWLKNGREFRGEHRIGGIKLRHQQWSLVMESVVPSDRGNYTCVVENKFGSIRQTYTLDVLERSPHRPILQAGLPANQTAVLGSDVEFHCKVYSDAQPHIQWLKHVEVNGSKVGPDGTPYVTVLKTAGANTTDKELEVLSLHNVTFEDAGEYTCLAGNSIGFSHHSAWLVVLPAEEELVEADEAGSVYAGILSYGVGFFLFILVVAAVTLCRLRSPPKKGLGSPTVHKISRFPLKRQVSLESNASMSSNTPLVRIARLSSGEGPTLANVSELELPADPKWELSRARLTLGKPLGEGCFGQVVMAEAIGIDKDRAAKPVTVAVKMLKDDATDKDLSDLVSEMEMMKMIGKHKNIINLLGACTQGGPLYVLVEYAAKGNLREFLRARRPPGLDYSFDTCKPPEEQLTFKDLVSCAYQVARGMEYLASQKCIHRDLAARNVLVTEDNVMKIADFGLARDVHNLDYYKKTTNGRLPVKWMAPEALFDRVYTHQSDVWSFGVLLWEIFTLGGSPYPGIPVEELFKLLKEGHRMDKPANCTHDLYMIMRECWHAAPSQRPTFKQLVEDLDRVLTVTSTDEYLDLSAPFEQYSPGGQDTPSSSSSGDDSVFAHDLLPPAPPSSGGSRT

How the values were obtained:
[1] = biological target: T1, human FGF2 (human, UniProt P09038 143-288); experiment: FGF2 depletion assay, unbound FGF2 by ELISA
T1 construct: also called hFGF2; Fibroblast Growth Factor 2

[2] = biological target: T1, human FGF2; experiment: fixed human FGF2 (1000 pg/ml) incubated with 0 to 250 ng/ml decoy, unbound FGF2 by ELISA
[3] = biological target: T1, human FGF2; experiment: fixed human FGF2 incubated with increasing decoy, unbound FGF2 by ELISA

Row | Molecule | binding [1] | binding [2] | binding [3]
1 | FLAG-sFGFR3_Del1 (from UniProt P22607 1-806) (receptor) | binds | binds | 
2 | FLAG-sFGFR3 (from UniProt P22607 23-806) (receptor) |  | binds | binds
3 | FLAG-sFGFR3_Del2 (from UniProt P22607 1-660) (receptor) | binds | binds | 
4 | FLAG-sFGFR3_Del3 (from UniProt P22607 1-552) (receptor) | binds | binds | 
5 | B1 | binds | binds | 
